Results as given in publication PMC11065875.
Construct, isoform or probe ends are uncertain for at least one entry.

Assays:
[1] = system: E3.10 (E3 ELP fused to FUS RRM and RGG domains); experiment: EMSA; conditions: EMSA in 2.5% agarose, 30 min incubation, 0.5 uM ssDNA1, fusions in 1x PBS (or 50% artificial fluids) at RT, His-ELPs at RT in 37 mM citric acid/126 mM Na2HPO4 pH 6, recombinant protein, single-stranded DNA
[2] = system: E3.10 (E3 ELP fused to FUS RRM and RGG domains); experiment: coacervate partitioning, agarose gel; conditions: LLPS in buffer, artificial saliva and nasal fluid; recombinant protein; single-stranded DNA

Measured: binding result

GGGTTCCTTGCTAGCCAGAGAGCTCCCGGGCTCGACCTGGTCTAACAAGAGAGACC [ssDNA1]
binds: [1]; 1x PBS | [1]; 50% PBS/50% artificial nasopharyngeal fluid | [1]; 50% PBS/50% artificial saliva | [2]
